Measured values from the supplement of paper PMC4749390.
Structures can show the parent of a compound that is named as a salt. This is one part of the list. Repeats in this data set agree poorly, so a single value says little.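 JEG3 cells stably carry tetracycline-induced wild-type human LRH-1, a heavily sumoylated nuclear receptor. APOC3 and MUC1 are SUMO-sensitive transcripts, raised by SUMO-less LRH-1 or UBC9 knockdown, measured by RT-qPCR against TBP and DMSO controls. A robust Z-score above +2 or below -2 marked a primary hit before toxicity and TBP filtering.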

tested on: JEG3 expressing hLRH-1; assay: APOC3 transcript change (ddCt vs TBP and DMSO), Z-score over library; higher = higher APOC3 expression; settings: 10 µM; time (hr): 24

Row | SMILES | APOC3 transcript change (Z-score)
1 | OCc1ccccc1O[C@@H]1O[C@H](CO)[C@@H](O)[C@H](O)[C@H]1O [salicin] | 3.18
2 | N[C@H]1CONC1=O [levcycloserine] | -0.56
3 | N#CC(c1ccc(Cl)cc1)c1c(Cl)cc(-n2ncc(=O)[nH]c2=O)cc1Cl (stereo not drawn) [diclazuril] | -0.698
4 | CC1CCC(NC(=O)N(CCCl)N=O)CC1 (stereo not drawn) [semustine] | 0.596
5 | CC(C)(CO)[C@@H](O)C(=O)NCCC(=O)O [pantothenic acid(d) na salt] | -0.0616
6 | CC(Cc1cccc(C(F)(F)F)c1)NCCOC(=O)c1ccccc1 (stereo not drawn) [benfluorex hydrochloride] | -0.455
7 | CC(C)(C)CC(C)(C)c1ccc(OCCOCC[N+](C)(C)Cc2ccccc2)cc1 [benzethonium chloride] | -2
8 | C=C1CC[C@H](O)C/C1=C/C=C1\CCC[C@]2(C)[C@@H]([C@H](C)/C=C/[C@H](C)C(C)C)CC[C@@H]12 [ergocalciferol] | 1.08
9 | O=C(COc1ccc(Cl)cc1)N1CCN(Cc2ccc3c(c2)OCO3)CC1 [fipexide hydrochloride] | 0.278
10 | N=C(N)Nc1nc(CSCCC(=N)NS(N)(=O)=O)cs1 [famotidine] | -0.123
11 | CN(CCOc1ccc(CC2SC(=O)NC2=O)cc1)c1ccccn1 (stereo not drawn) [rosiglitazone] | -1.51
12 | CC(C)(C)NC(=O)[C@H]1CC[C@H]2[C@@H]3CC[C@H]4NC(=O)C=C[C@]4(C)[C@H]3CC[C@]12C [finasteride] | 1.46
13 | CC(C)[N+](C)(CCOC(=O)C1c2ccccc2Oc2ccccc21)C(C)C [propantheline bromide] | -0.187
14 | CC/C=C\C/C=C\C/C=C\C/C=C\C/C=C\C/C=C\CCC(=O)O [doconexent] | -0.589
15 | O=c1oc2cc(O)ccc2s1 [thioxolone] | -0.617
16 | CC(C)NCC(O)COc1cccc2[nH]ccc12 (stereo not drawn) [Pindolol] | 0.221
17 | C[C@H](CS)C(=O)N1CCC[C@H]1C(=O)O [Captopril] | 0.0668
18 | C[C@]12C=CC(=O)C=C1CCC1C2[C@@H](O)C[C@@]2(C)C1CC[C@]2(O)C(=O)CO (stereo partly drawn) [prednisolone] | 0.553
19 | Cc1ccsc1/C=C/C1=NCCCN1C [morantel citrate] | 0.411
20 | NCCc1ccc(O)c(O)c1 [Dopamine hydrochloride] | 0.468
21 | CCCCC1C(=O)N(c2ccccc2)N(c2ccccc2)C1=O [Phenylbutazone] | -0.0448
22 | COc1ccc2[nH]c(S(=O)Cc3ncc(C)c(OC)c3C)nc2n1 (stereo not drawn) [tenatoprazole] | -0.401
23 | Oc1nc2ccccc2n1C1CCN(CCCC(c2ccc(F)cc2)c2ccc(F)cc2)CC1 [Pimozide] | 1.26
24 | Cc1c(Nc2ncccc2C(=O)O)cccc1C(F)(F)F [flunixin meglumine] | -1.27
25 | CCN1CCN(c2cc3c(cc2F)c(=O)c(C(=O)O)cn3C2CC2)CC1 [enrofloxacin] | 0.712
26 | CC(=O)Nc1ccc(C(=O)O)cc1 [acedoben] | -0.544

Single entries from the entries so far.
For APOC3 transcript change (Z-score), N=C(N)Nc1nc(CSCCC(=N)NS(N)(=O)=O)cs1 [famotidine] has the entry -0.123
For APOC3 transcript change (Z-score), COc1ccc2[nH]c(S(=O)Cc3ncc(C)c(OC)c3C)nc2n1 (stereo not drawn) [tenatoprazole] has the entry -0.401
For APOC3 transcript change (Z-score), C=C1CC[C@H](O)C/C1=C/C=C1\CCC[C@]2(C)[C@@H]([C@H](C)/C=C/[C@H](C)C(C)C)CC[C@@H]12 [ergocalciferol] has the entry 1.08
For APOC3 transcript change (Z-score), N[C@H]1CONC1=O [levcycloserine] has the entry -0.56
For APOC3 transcript change (Z-score), CC(C)[N+](C)(CCOC(=O)C1c2ccccc2Oc2ccccc21)C(C)C [propantheline bromide] has the entry -0.187
For APOC3 transcript change (Z-score), O=c1oc2cc(O)ccc2s1 [thioxolone] has the entry -0.617
For APOC3 transcript change (Z-score), CC(Cc1cccc(C(F)(F)F)c1)NCCOC(=O)c1ccccc1 (stereo not drawn) [benfluorex hydrochloride] has the entry -0.455

(cont.)

Row | SMILES | APOC3 transcript change (Z-score)
27 | CCN(CC)CCOCCOC(=O)C1(c2ccccc2)CCCC1 [Carbetapentane citrate] | -0.278
28 | CC1OC(O[C@H]2/C=C/C=C/C=C/C=C/C=C/C=C/C=C/[C@H](C)[C@@H](O)[C@@H](C)[C@H](C)OC(=O)CC(O)CC(O)CCC(O)C(O)CC(O)C[C@]3(O)C[C@H](O)C(C(=O)O)C(C2)O3)C(O)[C@H](N)C1O (stereo partly drawn) [amphotericin b] | 0.162
29 | O=C1C(O)=C(O)C(=O)C(O)=C1O [tetroquinone] | -0.271
30 | O=C1c2ccccc2C(=O)C1c1ccc(Cl)cc1 [chlorindione] | -1.22
31 | O=C(O)CCC(=O)Nc1ccc(S(=O)(=O)Nc2nccs2)cc1 [succinylsulfathiazole] | 0.574
32 | C[C@]12C=CC(=O)C=C1CCC1C2[C@@H](O)C[C@@]2(C)C1CC[C@]2(O)C(=O)COP(=O)(O)O (stereo partly drawn) [prednisolone sodium phosphate] | 1.56
33 | CN(C)c1nc(N(C)C)nc(N(C)C)n1 [altretamine] | -0.208
34 | NNC(=O)c1ccncc1 [isoniazid] | 0.489
35 | N[C@@H](COP(=O)(O)O)C(=O)O [O-Phospho-L-serine] | -0.749
36 | COc1cccc(OC)c1C(=O)N[C@@H]1C(=O)N2[C@@H]1SC(C)(C)[C@@H]2C(=O)O [methicillin sodium] | -0.0886
37 | Nc1cc(C(Cl)=C(Cl)Cl)c(S(N)(=O)=O)cc1S(N)(=O)=O [clorsulon] | -0.139
38 | CC1(C)OC(=O)C(OCC2CC2)=C1c1ccc(S(C)(=O)=O)cc1 [firocoxib] | 0.422
39 | CCOc1ccc(Cc2nccc3cc(OCC)c(OCC)cc23)cc1OCC [ethaverine hydrochloride] | 2.03
40 | C#C[C@]1(O)CC[C@H]2[C@@H]3CCC4=Cc5oncc5C[C@]4(C)[C@H]3CC[C@@]21C [danazol] | -0.0846
41 | NC[C@H]1O[C@H](OC2[C@@H](N)C[C@@H](N)[C@H](O[C@H]3O[C@H](CO)[C@@H](O)[C@H](N)[C@H]3O)[C@H]2O)[C@H](O)[C@@H](O)[C@@H]1O (stereo partly drawn) [kanamycin sulfate] | -0.143
42 | CC12CC3CC(C)(C1)CC(N)(C3)C2 [Memantine hydrochloride] | -0.752
43 | C=C(CC)C(=O)c1ccc(OCC(=O)O)c(Cl)c1Cl [ethacrynic acid] | -0.172
44 | c1ccc2[nH]c(-c3cscn3)nc2c1 [thiabendazole] | 1.43
45 | CCC[C@@H]1C[C@@H](C(=O)N[C@@H]([C@H]2O[C@H](SC)[C@H](O)[C@@H](O)[C@H]2O)[C@@H](C)O)N(C)C1 [lincomycin hydrochloride] | 0.548
46 | CCOC(=O)[N-]c1c[n+](N2CCOCC2)no1 [molsidomine] | -1.16
47 | CCN(CC)CCNc1ccc(CO)c2sc3ccccc3c(=O)c12 [hycanthone] | 2.88
48 | Cn1c(=O)c2c(ncn2CC2OCCO2)n(C)c1=O [doxofylline] | 0.33
49 | CCCCC1(COC(=O)CCC(=O)O)C(=O)N(c2ccccc2)N(c2ccccc2)C1=O [suxibuzone] | -0.0245
50 | CC(CCC(=O)O)[C@H]1CCC2C3C(=O)C[C@@H]4CC(=O)CC[C@]4(C)C3CC(=O)[C@@]21C (stereo partly drawn) [dehydrocholic acid] | -0.21
51 | O=C(O)C[C@H](O)C[C@H](O)/C=C/c1c(C2CC2)nc2ccccc2c1-c1ccc(F)cc1 [pitavastatin calcium] | 1.12
52 | C=C(C)C1CC=C(C)CC1 (stereo not drawn) [d-limonene] | -1.52

Row | SMILES | APOC3 transcript change (Z-score)
53 | CCN(CC)CCNC(=O)c1cc(Br)c(N)cc1OC [bromopride] | -1.22
54 | CN(C)CCN(Cc1ccccc1)c1ccccn1 [Tripelennamine hydrochloride] | 0.211
55 | CC1(C)O[C@]2(C)CC[C@H]1CC2 [eucalyptol] | 0.667
56 | O=[N+]([O-])c1ccc(O)c2ncccc12 [nitroxoline] | -1.09
57 | COc1c2ccoc2cc2oc(=O)ccc12 [bergapten] | -0.215
58 | CC(C)NNC(=O)c1ccncc1 [Iproniazid phosphate] | -0.777
59 | COCCCOc1ccnc(CS(=O)c2nc3ccccc3[nH]2)c1C (stereo not drawn) [rabeprazole sodium] | 0.406
60 | CN1CCN(c2c(F)cc3c(=O)c(C(=O)O)cn4c3c2SCC4)CC1 [rufloxacin hydrochloride] | 0.526
61 | [O-][n+]1cccc(CO)c1 [mepiroxol] | -0.156
62 | CN(C)CCc1c[nH]c2ccc(CS(=O)(=O)N3CCCC3)cc12 [almotriptan] | -0.446
63 | N[C@@H](Cc1ccc(O)c(O)c1)C(=O)O [levodopa] | 0.181
64 | NC(=O)c1ccc[n+]([C@@H]2O[C@H](COP(=O)([O-])OP(=O)(O)OC[C@H]3O[C@@H](n4cnc5c(N)ncnc54)[C@H](O)[C@@H]3O)[C@@H](O)[C@H]2O)c1 [nadide] | 0.26
65 | CO[C@H]1C[C@H](O[C@@H]2/C(C)=C/C[C@@H]3C[C@@H](C[C@]4(CC[C@H](C)[C@@H](C5CCCCC5)O4)O3)OC(=O)[C@@H]3C=C(C)/C(=N/O)[C@H]4OC/C(=C\C=C\[C@@H]2C)[C@]43O)O[C@@H](C)[C@@H]1O [selamectin] | 1.38
66 | Oc1ccnc(O)n1 [uracil] | 0.656
67 | NC[C@@H]1O[C@H](O[C@H]2[C@@H](O)[C@H](O[C@@H]3[C@@H](O)[C@H](N)C[C@H](N)[C@H]3O[C@H]3O[C@H](CN)[C@@H](O)[C@H](O)[C@H]3N)O[C@@H]2CO)[C@H](N)[C@@H](O)[C@@H]1O [neomycin sulfate] | 0.567
68 | CCC1(C)CC(=O)NC1=O (stereo not drawn) [ethosuximide] | 0.638
69 | Cc1onc(-c2ccccc2Cl)c1C(=O)N[C@@H]1C(=O)N2[C@@H]1SC(C)(C)[C@@H]2C(=O)O [cloxacillin sodium] | -1.21
70 | NC(Cc1ccc(Cl)cc1)C(=O)O (racemic) [(±)-p-Chlorophenylalanine] | 1.42
71 | CC(=O)c1ccc(S(=O)(=O)NC(=O)NC2CCCCC2)cc1 [Acetohexamide] | -0.0496
72 | O=C(O)CN1C(=O)c2cccc3cccc(c23)C1=O [alrestatin] | -0.0133
73 | CCCNC(C)(C)COC(=O)c1ccccc1 [meprylcaine hydrochloride] | 0.648
74 | O=C1c2c(O)ccc(O)c2C(=O)c2c(NCCNCCO)ccc(NCCNCCO)c21 [mitoxanthrone hydrochloride] | 4.1
75 | CC(O)(CC(=O)O)CC(=O)O [meglutol] | -0.258
76 | N=C(N)/N=C(\N)N1CCOCC1 [moroxydine hydrochloride] | -0.574
77 | CCn1cc(C(=O)O)c(=O)c2cnc(N3CCCC3)nc21 [piromidic acid] | 0.819
78 | NS(=O)(=O)c1cc2c(cc1C(F)(F)F)NCNS2(=O)=O [hydroflumethiazide] | 0.339
